# Data from article PMC7461561.
# Chains of the proteins cited; added tags and fusions are not shown. Residues count along the entry.
# UniProt O60260: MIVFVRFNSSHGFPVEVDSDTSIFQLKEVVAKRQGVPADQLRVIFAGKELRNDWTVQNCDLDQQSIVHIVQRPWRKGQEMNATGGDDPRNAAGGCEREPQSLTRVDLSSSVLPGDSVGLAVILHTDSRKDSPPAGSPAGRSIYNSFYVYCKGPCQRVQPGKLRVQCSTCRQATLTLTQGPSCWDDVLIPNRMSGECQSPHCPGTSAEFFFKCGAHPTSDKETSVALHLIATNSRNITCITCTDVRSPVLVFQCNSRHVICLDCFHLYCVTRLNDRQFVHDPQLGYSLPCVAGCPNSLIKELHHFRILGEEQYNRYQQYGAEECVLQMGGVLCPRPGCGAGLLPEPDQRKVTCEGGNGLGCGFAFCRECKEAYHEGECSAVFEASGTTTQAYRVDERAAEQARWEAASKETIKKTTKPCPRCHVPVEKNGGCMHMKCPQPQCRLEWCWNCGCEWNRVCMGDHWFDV
# UniProt Q86UX7: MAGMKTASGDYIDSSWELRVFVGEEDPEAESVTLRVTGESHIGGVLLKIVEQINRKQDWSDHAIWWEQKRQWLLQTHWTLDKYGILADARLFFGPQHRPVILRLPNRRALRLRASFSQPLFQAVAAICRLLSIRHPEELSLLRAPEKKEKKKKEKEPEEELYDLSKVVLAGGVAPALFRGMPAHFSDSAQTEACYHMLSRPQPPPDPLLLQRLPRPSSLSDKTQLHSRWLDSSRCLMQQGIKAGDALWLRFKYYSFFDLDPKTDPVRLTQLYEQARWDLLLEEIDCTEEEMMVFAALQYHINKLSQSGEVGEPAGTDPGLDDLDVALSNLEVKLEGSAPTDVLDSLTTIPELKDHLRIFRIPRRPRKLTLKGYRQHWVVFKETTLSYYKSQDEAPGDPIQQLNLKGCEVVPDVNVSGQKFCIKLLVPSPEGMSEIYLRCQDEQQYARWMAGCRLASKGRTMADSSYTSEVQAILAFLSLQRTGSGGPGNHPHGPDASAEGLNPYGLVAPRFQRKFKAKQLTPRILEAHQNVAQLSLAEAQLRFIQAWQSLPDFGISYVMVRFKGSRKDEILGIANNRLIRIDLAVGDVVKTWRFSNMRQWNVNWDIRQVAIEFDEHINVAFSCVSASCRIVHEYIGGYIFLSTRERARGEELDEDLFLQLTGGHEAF
# UniProt Q8BMS1, residues 37-763: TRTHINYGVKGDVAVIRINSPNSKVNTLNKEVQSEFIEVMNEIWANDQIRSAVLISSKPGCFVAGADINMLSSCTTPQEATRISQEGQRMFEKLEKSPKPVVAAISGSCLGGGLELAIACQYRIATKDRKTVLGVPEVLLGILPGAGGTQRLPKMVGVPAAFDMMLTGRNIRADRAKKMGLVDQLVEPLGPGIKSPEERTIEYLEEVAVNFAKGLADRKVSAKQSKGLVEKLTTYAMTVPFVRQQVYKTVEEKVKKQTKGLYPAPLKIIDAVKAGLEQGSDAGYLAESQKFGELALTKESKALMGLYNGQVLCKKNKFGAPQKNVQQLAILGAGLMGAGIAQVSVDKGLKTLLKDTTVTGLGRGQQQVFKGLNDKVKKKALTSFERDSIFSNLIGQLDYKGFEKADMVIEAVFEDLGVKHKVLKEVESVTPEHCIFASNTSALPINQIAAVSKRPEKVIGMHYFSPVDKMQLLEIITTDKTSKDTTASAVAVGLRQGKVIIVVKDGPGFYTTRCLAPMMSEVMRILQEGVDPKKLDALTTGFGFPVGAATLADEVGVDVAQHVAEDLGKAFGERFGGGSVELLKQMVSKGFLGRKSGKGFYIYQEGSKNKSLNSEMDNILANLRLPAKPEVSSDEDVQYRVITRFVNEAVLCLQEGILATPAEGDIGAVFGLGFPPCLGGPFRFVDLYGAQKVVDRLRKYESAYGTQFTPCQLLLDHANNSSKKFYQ
# UniProt Q13418: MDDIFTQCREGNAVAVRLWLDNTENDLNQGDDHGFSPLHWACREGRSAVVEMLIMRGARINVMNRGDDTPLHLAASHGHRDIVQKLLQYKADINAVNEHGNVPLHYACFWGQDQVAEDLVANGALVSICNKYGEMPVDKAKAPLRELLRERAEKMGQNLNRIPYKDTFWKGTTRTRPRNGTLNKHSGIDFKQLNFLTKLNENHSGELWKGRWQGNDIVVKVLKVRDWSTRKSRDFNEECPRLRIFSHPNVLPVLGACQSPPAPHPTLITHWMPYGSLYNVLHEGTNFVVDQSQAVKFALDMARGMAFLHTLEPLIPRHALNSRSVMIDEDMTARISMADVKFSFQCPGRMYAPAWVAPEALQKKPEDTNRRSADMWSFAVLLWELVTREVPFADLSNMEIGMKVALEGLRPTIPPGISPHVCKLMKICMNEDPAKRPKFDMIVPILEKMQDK
# UniProt Q8K1B8: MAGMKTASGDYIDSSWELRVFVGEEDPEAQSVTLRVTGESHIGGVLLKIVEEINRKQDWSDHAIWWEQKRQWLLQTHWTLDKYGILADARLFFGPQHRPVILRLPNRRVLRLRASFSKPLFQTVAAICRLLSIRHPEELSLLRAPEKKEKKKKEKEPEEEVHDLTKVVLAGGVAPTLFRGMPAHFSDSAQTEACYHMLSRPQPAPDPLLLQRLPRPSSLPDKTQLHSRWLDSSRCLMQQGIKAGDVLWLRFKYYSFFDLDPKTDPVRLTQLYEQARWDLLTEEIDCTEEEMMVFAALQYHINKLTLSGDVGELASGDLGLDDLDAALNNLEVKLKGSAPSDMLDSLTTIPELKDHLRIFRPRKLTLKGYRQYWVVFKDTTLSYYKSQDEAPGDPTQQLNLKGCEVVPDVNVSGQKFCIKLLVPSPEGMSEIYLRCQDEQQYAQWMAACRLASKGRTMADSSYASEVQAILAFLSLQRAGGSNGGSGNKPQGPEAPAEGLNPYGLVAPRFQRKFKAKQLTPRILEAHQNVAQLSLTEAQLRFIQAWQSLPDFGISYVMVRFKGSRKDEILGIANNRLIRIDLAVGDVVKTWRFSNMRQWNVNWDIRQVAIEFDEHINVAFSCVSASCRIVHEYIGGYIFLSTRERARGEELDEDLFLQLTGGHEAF
# UniProt P07237, residues 18-508: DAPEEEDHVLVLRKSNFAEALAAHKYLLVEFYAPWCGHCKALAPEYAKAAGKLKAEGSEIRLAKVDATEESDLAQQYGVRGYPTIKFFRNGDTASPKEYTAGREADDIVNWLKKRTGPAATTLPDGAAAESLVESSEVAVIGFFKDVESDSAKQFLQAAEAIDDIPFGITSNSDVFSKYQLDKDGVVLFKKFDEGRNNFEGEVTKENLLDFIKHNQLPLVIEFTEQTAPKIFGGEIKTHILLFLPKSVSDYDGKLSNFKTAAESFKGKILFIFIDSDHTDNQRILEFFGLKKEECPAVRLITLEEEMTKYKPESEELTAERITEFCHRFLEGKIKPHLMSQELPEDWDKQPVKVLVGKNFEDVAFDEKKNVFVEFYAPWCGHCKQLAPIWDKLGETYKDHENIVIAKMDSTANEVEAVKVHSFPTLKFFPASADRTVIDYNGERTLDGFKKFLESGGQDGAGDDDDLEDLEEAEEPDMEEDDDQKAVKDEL
# UniProt P40939, residues 37-763: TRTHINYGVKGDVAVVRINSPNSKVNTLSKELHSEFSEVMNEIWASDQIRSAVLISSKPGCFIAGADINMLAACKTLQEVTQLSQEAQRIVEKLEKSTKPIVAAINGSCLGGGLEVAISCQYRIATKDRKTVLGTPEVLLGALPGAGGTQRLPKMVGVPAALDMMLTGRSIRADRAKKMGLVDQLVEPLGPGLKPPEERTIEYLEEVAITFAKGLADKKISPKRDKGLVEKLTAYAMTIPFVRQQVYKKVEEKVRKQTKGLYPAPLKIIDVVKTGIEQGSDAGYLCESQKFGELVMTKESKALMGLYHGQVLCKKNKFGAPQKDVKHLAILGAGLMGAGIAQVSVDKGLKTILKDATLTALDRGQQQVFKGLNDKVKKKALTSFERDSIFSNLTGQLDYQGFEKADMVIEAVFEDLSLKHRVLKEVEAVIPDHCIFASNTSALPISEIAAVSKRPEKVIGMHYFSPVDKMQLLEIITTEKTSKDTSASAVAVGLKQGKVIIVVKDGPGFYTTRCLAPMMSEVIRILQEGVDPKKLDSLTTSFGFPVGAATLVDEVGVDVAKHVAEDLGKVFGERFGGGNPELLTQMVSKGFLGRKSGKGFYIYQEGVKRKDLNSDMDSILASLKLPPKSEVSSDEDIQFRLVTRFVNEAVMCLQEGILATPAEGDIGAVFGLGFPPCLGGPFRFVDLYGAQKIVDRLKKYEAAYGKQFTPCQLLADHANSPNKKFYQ
# These are yes or no findings as the source states them, for the method shown. In cells and extracts the contact can be indirect. Some results given as binding are weak or reduced against the parent protein; the word gives no strength.
# T1: Parkin (murine platelets) (mouse (endogenous in platelets)) (UniProt Q9WVS6)
# T1 sequence: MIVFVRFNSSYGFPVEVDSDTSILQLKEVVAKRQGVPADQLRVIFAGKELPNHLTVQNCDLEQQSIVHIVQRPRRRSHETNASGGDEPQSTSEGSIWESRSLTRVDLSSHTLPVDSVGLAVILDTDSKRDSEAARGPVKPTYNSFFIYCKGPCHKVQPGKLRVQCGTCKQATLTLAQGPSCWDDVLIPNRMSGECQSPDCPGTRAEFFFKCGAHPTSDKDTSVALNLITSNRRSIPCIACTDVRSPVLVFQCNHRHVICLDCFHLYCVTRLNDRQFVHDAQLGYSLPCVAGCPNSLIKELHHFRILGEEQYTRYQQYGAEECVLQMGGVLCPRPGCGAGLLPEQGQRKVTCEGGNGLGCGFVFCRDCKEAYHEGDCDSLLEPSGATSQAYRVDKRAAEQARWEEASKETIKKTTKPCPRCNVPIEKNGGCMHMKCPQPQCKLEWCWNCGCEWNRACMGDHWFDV
# How the values were obtained:
# [1] = target: T1, Parkin (murine platelets) (mouse (endogenous in platelets)); experiment: co-IP; 500 ug pooled murine platelet lysates (3 WT, 5 DM) with specific antibody overnight at 4 °C, protein A/G sepharose beads, Western blot, 10% input
# [2] = target: Parkin (human (endogenous in platelets)) (UniProt O60260); experiment: co-IP; 500 ug pooled human platelet lysates (4 HC, 5 DM1, 6 DM2) with 1 ug specific antibody overnight at 4 °C, protein A/G sepharose beads, Western blot, 10% input
binding [1],binding [2],Molecule
–,binds,Fermitin family homolog 3 (from UniProt Q86UX7 1-667)
binds,–,HADHA (murine platelets) (from UniProt Q8BMS1 37-763)
–,binds,Integrin-linked protein kinase (from UniProt Q13418 1-452)
binds,–,VCP/p97 (murine platelets) (from UniProt Q01853 1-806)
binds,–,"Prohibitin (murine platelets) (protein, UniProt P67778 1-272) MAAKVFESIGKFGLALAVAGGVVNSALYNVDAGHRAVIFDRFRGVQDIVVGEGTHFLIPWVQKPIIFDCRSRPRNVPVITGSKDLQNVNITLRILFRPVASQLPRIYTSIGEDYDERVLPSITTEILKSVVARFDAGELITQRELVSRQVSDDLTERAATFGLILDDVSLTHLTFGKEFTEAVEAKQVAQQEAERARFVVEKAEQQKKAAIISAEGDSKAAELIANSLATAGDGLIELRKLEAAEDIAYQLSRSRNITYLPAGQSVLLQLPQ"

# More lines, now with the values behind:
Molecule,binding [1],binding [2]
FERMT3 (murine platelets) (from UniProt Q8K1B8 1-665),binds,–
Protein disulfide-isomerase (from UniProt P07237 18-508),–,binds
Transitional endoplasmic reticulum ATPase (from UniProt P55072 1-806),–,binds
"Trifunctional enzyme subunit alpha, mitochondrial (from UniProt P40939 37-763)",–,binds
"LAMP1 (murine platelets) (protein, UniProt P11438 25-406) LFEVKNNGTTCIMASFSASFLTTYETANGSQIVNISLPASAEVLKNGSSCGKENVSDPSLTITFGRGYLLTLNFTKNTTRYSVQHMYFTYNLSDTEHFPNAISKEIYTMDSTTDIKADINKAYRCVSDIRVYMKNVTVVLRDATIQAYLSSGNFSKEETHCTQDGPSPTTGPPSPSPPLVPTNPTVSKYNVTGNNGTCLLASMALQLNITYLKKDNKTVTRAFNISPNDTSSGSCGINLVTLKVENKNRALELQFGMNASSSLFFLQGVRLNMTLPDALVPTFSISNHSLKALQATVGNSYKCNTEEHIFVSKMLSLNVFSVQVQAFKVDSDRFGSVEECVQDGNNMLIPIAVGGALAGLVLIVLIAYLIGRKRSHAGYQTI",binds,–
